Laboratory results published in doi:10.1101/2020.06.09.141986.
Read-outs that look alike come from different tables or passages of the source. Results are given in words; binding and its absence hold for the method and conditions named. For some assays here: In cells and extracts the contact can be indirect. Some results given as binding are weak or reduced against the parent protein; the word gives no strength. For some assays here: Where a sequence is shown, tags or fusion partners need not be part of it.

Amino acid sequences for entries named in this document (tags omitted). A change or cut given only in a name is not applied to a line headed by its entry.
UniProt P31749: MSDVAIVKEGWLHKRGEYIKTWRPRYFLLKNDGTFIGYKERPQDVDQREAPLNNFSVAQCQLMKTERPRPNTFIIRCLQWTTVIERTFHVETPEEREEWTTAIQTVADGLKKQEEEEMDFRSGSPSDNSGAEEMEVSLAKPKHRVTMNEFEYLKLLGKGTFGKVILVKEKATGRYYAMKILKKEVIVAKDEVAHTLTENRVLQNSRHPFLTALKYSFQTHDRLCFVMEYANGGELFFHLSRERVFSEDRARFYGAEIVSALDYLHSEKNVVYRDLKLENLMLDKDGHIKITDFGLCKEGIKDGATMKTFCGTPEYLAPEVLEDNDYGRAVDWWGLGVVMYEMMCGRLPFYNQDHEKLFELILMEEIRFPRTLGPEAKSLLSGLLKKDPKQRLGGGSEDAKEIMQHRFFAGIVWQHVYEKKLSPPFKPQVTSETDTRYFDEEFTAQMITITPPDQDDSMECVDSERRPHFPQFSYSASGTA
UniProt P31750: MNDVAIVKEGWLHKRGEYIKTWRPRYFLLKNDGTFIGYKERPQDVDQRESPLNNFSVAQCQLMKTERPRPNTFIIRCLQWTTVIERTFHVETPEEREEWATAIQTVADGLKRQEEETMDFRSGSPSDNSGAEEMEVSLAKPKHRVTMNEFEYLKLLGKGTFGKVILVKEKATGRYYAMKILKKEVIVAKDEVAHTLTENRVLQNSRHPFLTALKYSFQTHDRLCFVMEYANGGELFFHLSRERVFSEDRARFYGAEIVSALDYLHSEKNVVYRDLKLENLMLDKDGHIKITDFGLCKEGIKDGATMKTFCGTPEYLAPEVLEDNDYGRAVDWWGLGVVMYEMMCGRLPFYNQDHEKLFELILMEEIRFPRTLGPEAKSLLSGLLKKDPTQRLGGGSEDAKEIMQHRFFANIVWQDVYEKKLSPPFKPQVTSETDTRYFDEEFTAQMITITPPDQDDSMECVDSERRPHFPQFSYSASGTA
UniProt P31751: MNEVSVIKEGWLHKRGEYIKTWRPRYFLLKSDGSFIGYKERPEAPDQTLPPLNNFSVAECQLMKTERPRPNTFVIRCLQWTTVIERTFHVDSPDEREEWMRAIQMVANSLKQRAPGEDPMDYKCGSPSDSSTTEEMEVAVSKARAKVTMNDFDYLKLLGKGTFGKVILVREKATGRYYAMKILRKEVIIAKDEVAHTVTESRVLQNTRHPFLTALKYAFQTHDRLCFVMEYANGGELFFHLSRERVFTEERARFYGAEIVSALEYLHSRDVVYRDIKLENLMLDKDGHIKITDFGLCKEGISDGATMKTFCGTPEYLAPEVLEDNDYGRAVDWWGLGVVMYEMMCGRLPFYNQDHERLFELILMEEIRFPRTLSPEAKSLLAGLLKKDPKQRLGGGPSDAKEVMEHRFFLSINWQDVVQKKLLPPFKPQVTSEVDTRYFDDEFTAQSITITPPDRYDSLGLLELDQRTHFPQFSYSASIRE

Key:
Flag-Aldob [1] = molecular target: T1, Flag-Aldob (UniProt P05062); experiment: co-IP
T1 sequence: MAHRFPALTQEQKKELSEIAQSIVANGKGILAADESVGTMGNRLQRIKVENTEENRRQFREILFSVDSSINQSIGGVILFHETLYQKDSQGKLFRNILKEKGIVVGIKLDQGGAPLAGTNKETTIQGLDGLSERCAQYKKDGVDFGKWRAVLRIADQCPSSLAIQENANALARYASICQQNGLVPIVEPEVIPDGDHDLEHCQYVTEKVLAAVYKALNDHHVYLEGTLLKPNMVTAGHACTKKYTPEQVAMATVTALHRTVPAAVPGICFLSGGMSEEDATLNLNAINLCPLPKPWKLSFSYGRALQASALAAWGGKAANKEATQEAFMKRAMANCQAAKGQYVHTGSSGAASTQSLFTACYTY

[2] = molecular target: T2, exogenous Aldob in LM3-Aldob cells (UniProt P05062); experiment: co-IP
T2 sequence: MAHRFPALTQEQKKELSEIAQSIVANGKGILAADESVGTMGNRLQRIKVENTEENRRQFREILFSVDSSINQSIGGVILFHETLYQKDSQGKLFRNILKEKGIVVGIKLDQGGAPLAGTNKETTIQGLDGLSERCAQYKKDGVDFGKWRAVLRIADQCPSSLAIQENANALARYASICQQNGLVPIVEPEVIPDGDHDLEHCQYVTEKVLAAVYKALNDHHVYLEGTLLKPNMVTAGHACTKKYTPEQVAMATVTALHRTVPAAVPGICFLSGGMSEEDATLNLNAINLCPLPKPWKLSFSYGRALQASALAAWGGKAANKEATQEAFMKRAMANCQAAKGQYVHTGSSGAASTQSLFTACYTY

Myc-Akt1 = Myc-Akt1 (UniProt P31749); experiment: co-IP
[3] = molecular target: Akt1, endogenous, mouse liver (mouse (endogenous in liver tissue)) (UniProt P31750); experiment: co-IP
[4] = molecular target: Akt1, endogenous, human liver tissue (human (endogenous in liver tissue)) (UniProt P31749); experiment: co-IP
GST-Akt1 = GST-Akt1 (UniProt P31749); experiment: pull-down
Flag-Aldob [5] = molecular target: T1, Flag-Aldob; experiment: co-IP; remark: listed apart in the source

Molecule	binding (Flag-Aldob [1])	binding (Myc-Akt1)	further results
Myc-Akt1 (from UniProt P31749 1-480)	binds	–	–
Akt1, endogenous, HCC cell lines (from UniProt P31749 1-480)	binds	–	binding [2]: binds
Akt2 (ectopically expressed) (from UniProt P31751 1-481)	binds	–	–
Akt1-T308A (from UniProt P31749 1-480)	binds	–	–
Akt1-S473A (from UniProt P31749 1-480)	binds	–	–
His-Aldob R304A (protein, UniProt P05062 1-364) MAHRFPALTQEQKKELSEIAQSIVANGKGILAADESVGTMGNRLQRIKVENTEENRRQFREILFSVDSSINQSIGGVILFHETLYQKDSQGKLFRNILKEKGIVVGIKLDQGGAPLAGTNKETTIQGLDGLSERCAQYKKDGVDFGKWRAVLRIADQCPSSLAIQENANALARYASICQQNGLVPIVEPEVIPDGDHDLEHCQYVTEKVLAAVYKALNDHHVYLEGTLLKPNMVTAGHACTKKYTPEQVAMATVTALHRTVPAAVPGICFLSGGMSEEDATLNLNAINLCPLPKPWKLSFSYGAALQASALAAWGGKAANKEATQEAFMKRAMANCQAAKGQYVHTGSSGAASTQSLFTACYTY	–	binds weakly	–
His-Aldob R46A (protein, UniProt P05062 1-364) MAHRFPALTQEQKKELSEIAQSIVANGKGILAADESVGTMGNRLQAIKVENTEENRRQFREILFSVDSSINQSIGGVILFHETLYQKDSQGKLFRNILKEKGIVVGIKLDQGGAPLAGTNKETTIQGLDGLSERCAQYKKDGVDFGKWRAVLRIADQCPSSLAIQENANALARYASICQQNGLVPIVEPEVIPDGDHDLEHCQYVTEKVLAAVYKALNDHHVYLEGTLLKPNMVTAGHACTKKYTPEQVAMATVTALHRTVPAAVPGICFLSGGMSEEDATLNLNAINLCPLPKPWKLSFSYGRALQASALAAWGGKAANKEATQEAFMKRAMANCQAAKGQYVHTGSSGAASTQSLFTACYTY	–	binds	–
His-Aldob K147A (protein, UniProt P05062 1-364) MAHRFPALTQEQKKELSEIAQSIVANGKGILAADESVGTMGNRLQRIKVENTEENRRQFREILFSVDSSINQSIGGVILFHETLYQKDSQGKLFRNILKEKGIVVGIKLDQGGAPLAGTNKETTIQGLDGLSERCAQYKKDGVDFGAWRAVLRIADQCPSSLAIQENANALARYASICQQNGLVPIVEPEVIPDGDHDLEHCQYVTEKVLAAVYKALNDHHVYLEGTLLKPNMVTAGHACTKKYTPEQVAMATVTALHRTVPAAVPGICFLSGGMSEEDATLNLNAINLCPLPKPWKLSFSYGRALQASALAAWGGKAANKEATQEAFMKRAMANCQAAKGQYVHTGSSGAASTQSLFTACYTY	–	binds	–
His-Aldob R149A (protein, UniProt P05062 1-364) MAHRFPALTQEQKKELSEIAQSIVANGKGILAADESVGTMGNRLQRIKVENTEENRRQFREILFSVDSSINQSIGGVILFHETLYQKDSQGKLFRNILKEKGIVVGIKLDQGGAPLAGTNKETTIQGLDGLSERCAQYKKDGVDFGKWAAVLRIADQCPSSLAIQENANALARYASICQQNGLVPIVEPEVIPDGDHDLEHCQYVTEKVLAAVYKALNDHHVYLEGTLLKPNMVTAGHACTKKYTPEQVAMATVTALHRTVPAAVPGICFLSGGMSEEDATLNLNAINLCPLPKPWKLSFSYGRALQASALAAWGGKAANKEATQEAFMKRAMANCQAAKGQYVHTGSSGAASTQSLFTACYTY	–	binds	–
Aldolase B (Aldob), endogenous, mouse liver (protein, UniProt Q91Y97 1-364) MAHRFPALTPEQKKELSEIAQRIVANGKGILAADESVGTMGNRLQRIKVENTEENRRQFRELLFSVDNSISQSIGGVILFHETLYQKDSQGNLFRNVLKEKGIVVGIKLDQGGAPLAGTNKETTIQGLDGLSERCAQYKKDGVDFGKWRAVLRIADQCPSSLAIQENANALARYASICQQNGLVPIVEPEVLPDGDHDLEHCQYVSEKVLAAVYKALNDHHVYLEGTLLKPNMVTAGHACTKKYTPEQVAMATVTALHRTVPAAVPGICFLSGGMSEEDATLNLNAINRCPLPRPWKLSFSYGRALQASALAAWGGKAANKKATQEAFMKRAMANCQAAQGQYVHTGSSGAAATQSLFTASYTY	–	–	binding [3]: binds
Aldolase B (Aldob), endogenous, human liver tissue (protein, UniProt P05062 1-364) MAHRFPALTQEQKKELSEIAQSIVANGKGILAADESVGTMGNRLQRIKVENTEENRRQFREILFSVDSSINQSIGGVILFHETLYQKDSQGKLFRNILKEKGIVVGIKLDQGGAPLAGTNKETTIQGLDGLSERCAQYKKDGVDFGKWRAVLRIADQCPSSLAIQENANALARYASICQQNGLVPIVEPEVIPDGDHDLEHCQYVTEKVLAAVYKALNDHHVYLEGTLLKPNMVTAGHACTKKYTPEQVAMATVTALHRTVPAAVPGICFLSGGMSEEDATLNLNAINLCPLPKPWKLSFSYGRALQASALAAWGGKAANKEATQEAFMKRAMANCQAAKGQYVHTGSSGAASTQSLFTACYTY	–	–	binding [4]: binds
His-Aldob (protein, UniProt P05062 1-364) MAHRFPALTQEQKKELSEIAQSIVANGKGILAADESVGTMGNRLQRIKVENTEENRRQFREILFSVDSSINQSIGGVILFHETLYQKDSQGKLFRNILKEKGIVVGIKLDQGGAPLAGTNKETTIQGLDGLSERCAQYKKDGVDFGKWRAVLRIADQCPSSLAIQENANALARYASICQQNGLVPIVEPEVIPDGDHDLEHCQYVTEKVLAAVYKALNDHHVYLEGTLLKPNMVTAGHACTKKYTPEQVAMATVTALHRTVPAAVPGICFLSGGMSEEDATLNLNAINLCPLPKPWKLSFSYGRALQASALAAWGGKAANKEATQEAFMKRAMANCQAAKGQYVHTGSSGAASTQSLFTACYTY	–	binds	binding (GST-Akt1): binds
His-Aldob a.a. 1-155 (domain or fragment, UniProt P05062 1-155) MAHRFPALTQEQKKELSEIAQSIVANGKGILAADESVGTMGNRLQRIKVENTEENRRQFREILFSVDSSINQSIGGVILFHETLYQKDSQGKLFRNILKEKGIVVGIKLDQGGAPLAGTNKETTIQGLDGLSERCAQYKKDGVDFGKWRAVLRIA	–	no binding	–
His-Aldob a.a. 1-240 (domain or fragment, UniProt P05062 1-240) MAHRFPALTQEQKKELSEIAQSIVANGKGILAADESVGTMGNRLQRIKVENTEENRRQFREILFSVDSSINQSIGGVILFHETLYQKDSQGKLFRNILKEKGIVVGIKLDQGGAPLAGTNKETTIQGLDGLSERCAQYKKDGVDFGKWRAVLRIADQCPSSLAIQENANALARYASICQQNGLVPIVEPEVIPDGDHDLEHCQYVTEKVLAAVYKALNDHHVYLEGTLLKPNMVTAGHAC	–	no binding	–
phosphoinositide-dependent kinase 1 (PDK1) (protein, UniProt O15530 1-556) MARTTSQLYDAVPIQSSVVLCSCPSPSMVRTQTESSTPPGIPGGSRQGPAMDGTAAEPRPGAGSLQHAQPPPQPRKKRPEDFKFGKILGEGSFSTVVLARELATSREYAIKILEKRHIIKENKVPYVTRERDVMSRLDHPFFVKLYFTFQDDEKLYFGLSYAKNGELLKYIRKIGSFDETCTRFYTAEIVSALEYLHGKGIIHRDLKPENILLNEDMHIQITDFGTAKVLSPESKQARANSFVGTAQYVSPELLTEKSACKSSDLWALGCIIYQLVAGLPPFRAGNEYLIFQKIIKLEYDFPEKFFPKARDLVEKLLVLDATKRLGCEEMEGYGPLKAHPFFESVTWENLHQQTPPKLTAYLPAMSEDDEDCYGNYDNLLSQFGCMQVSSSSSSHSLSASDTGLPQRSGSNIEQYIHDLDSNSFELDLQFSEDEKRLLLEKQAGGNPWHQFVENNLILKMGPVDKRKGLFARRRQLLLTEGPHLYYVDPVNKVLKGEIPWSQELRPEAKNFKTFFVHTPNRTYYLMDPSGNAHKWCRKIQEVWRQRYQSHPDAAVQ	–	–	binding (Flag-Aldob [5]): no binding
